Measured values: patent US20060121483A1, “Methods for detecting teneurin signalling and related screening methods” (priority 2002, published 2006)
Results are given in words; binding and its absence hold for the method and conditions named. Some binding calls cover weakened binding; strength is not graded here.

Target: T1, third SH3 domain of ponsin (interacting cDNA clone from a whole mouse 19day embryo DupLex-A cDNA library) (mouse) (UniProt Q62417)
T1 sequence (looked up): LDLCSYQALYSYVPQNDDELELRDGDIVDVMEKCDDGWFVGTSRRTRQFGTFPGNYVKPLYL
Assay: yeast two-hybrid screen (DupLEX-A), mouse 19day embryo cDNA library

binding: binds
B1: Ten-1b (aminoacids 156-300 of teneurin-1) (protein, chicken, UniProt Q9W6V6 156-300, looked up, not shown: large carriers)
chain: DGENDMPGSPHNQFTFRPLPPPPPPPHACTCTRKPPPAADSLQRRSMTTRSQPSPAAPTPPTSTQDSVHLHNSWVLNSNIPLETRHFLFKHGSGSSAIFSAASQNYPLTSNTVYSPPPRPLPRNTFSRPAFTFSKPYRCCNWKCT
